Assay results as given in the supplement of paper PMC10849652.
The other results are listed elsewhere or left out. Residues, ends and D or L forms follow the SMILES beside them. *: point of attachment. Cbz = O=C(OCc1ccccc1)*

Amino acid sequences for entries named in this document (tags omitted). A change or cut given only in a name is not applied to a line headed by its entry.
UniProt Q6UWE0: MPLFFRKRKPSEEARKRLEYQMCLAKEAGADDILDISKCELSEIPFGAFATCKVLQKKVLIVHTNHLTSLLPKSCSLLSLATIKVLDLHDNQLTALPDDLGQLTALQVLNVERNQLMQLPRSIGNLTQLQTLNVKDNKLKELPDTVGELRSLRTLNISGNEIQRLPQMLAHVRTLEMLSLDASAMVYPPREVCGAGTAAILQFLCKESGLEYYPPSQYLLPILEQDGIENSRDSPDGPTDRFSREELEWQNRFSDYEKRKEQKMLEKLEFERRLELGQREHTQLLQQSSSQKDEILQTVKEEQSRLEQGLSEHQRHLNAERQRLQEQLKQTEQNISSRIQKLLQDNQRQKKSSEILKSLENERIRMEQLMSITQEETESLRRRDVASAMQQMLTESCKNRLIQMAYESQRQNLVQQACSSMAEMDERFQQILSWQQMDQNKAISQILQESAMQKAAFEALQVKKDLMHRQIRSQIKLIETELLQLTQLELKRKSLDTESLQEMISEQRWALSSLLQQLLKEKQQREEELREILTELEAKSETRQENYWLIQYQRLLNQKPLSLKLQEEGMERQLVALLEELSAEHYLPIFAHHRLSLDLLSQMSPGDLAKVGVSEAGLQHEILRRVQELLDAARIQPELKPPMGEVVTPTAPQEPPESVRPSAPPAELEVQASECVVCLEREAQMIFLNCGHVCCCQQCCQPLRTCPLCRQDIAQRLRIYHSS
UniProt Q7Z3D4: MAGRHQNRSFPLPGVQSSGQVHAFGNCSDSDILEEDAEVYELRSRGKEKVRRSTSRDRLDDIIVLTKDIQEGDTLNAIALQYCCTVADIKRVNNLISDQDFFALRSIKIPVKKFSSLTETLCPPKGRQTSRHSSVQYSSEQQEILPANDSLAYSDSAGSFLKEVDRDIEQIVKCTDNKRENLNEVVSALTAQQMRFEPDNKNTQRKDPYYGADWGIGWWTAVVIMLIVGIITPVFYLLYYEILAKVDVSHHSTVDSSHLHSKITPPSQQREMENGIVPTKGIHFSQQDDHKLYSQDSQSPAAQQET
UniProt O00462: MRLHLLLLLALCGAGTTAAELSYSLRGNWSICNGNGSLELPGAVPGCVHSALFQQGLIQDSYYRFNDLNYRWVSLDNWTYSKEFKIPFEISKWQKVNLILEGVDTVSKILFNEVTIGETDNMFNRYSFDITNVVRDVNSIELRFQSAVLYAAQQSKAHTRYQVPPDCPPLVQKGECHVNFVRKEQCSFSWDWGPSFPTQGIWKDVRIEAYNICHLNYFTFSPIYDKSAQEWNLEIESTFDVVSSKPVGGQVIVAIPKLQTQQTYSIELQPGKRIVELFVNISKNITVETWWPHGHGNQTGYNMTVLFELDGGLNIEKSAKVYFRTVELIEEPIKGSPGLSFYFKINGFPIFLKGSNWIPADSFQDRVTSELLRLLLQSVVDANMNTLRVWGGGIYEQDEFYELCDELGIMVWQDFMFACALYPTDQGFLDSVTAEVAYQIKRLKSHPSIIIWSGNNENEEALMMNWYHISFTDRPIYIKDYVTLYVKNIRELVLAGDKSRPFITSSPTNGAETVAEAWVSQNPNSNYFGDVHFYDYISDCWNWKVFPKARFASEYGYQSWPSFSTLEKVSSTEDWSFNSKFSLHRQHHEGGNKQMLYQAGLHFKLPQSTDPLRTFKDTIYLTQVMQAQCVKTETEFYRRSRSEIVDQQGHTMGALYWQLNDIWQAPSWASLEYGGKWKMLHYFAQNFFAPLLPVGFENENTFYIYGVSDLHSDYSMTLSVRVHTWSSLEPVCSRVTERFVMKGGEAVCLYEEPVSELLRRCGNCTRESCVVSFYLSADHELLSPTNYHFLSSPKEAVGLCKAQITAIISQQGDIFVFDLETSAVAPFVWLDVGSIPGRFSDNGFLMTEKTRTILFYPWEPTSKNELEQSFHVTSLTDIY
UniProt O95777: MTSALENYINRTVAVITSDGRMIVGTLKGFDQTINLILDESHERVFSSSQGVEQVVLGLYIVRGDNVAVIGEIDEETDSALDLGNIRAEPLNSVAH
UniProt Q8WZA0: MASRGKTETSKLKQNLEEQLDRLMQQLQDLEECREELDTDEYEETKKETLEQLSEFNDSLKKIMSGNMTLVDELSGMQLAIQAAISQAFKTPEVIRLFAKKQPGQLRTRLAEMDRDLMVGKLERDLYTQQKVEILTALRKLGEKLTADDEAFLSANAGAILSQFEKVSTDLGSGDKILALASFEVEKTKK
UniProt Q8IWT6: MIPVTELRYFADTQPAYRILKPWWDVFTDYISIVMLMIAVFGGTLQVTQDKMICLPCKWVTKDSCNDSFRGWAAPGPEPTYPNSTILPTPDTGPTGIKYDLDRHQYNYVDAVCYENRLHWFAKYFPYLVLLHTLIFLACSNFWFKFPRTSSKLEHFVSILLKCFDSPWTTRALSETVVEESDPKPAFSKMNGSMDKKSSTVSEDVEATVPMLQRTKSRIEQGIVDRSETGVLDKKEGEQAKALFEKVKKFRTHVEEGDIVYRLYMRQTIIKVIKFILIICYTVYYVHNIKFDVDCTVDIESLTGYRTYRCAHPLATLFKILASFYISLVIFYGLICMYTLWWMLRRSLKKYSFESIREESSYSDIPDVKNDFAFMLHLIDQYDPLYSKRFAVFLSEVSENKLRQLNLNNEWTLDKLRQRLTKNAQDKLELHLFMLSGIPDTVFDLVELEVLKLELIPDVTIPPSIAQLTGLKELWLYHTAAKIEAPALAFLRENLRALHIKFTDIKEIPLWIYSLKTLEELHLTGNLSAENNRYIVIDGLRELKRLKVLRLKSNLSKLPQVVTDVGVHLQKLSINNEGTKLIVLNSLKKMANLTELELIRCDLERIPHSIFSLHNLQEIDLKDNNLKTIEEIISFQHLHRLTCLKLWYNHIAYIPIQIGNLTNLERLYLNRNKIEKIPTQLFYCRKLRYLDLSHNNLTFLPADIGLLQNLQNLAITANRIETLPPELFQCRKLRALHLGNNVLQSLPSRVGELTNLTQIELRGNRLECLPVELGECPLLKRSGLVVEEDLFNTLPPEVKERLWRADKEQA
UniProt Q9Y4Z0: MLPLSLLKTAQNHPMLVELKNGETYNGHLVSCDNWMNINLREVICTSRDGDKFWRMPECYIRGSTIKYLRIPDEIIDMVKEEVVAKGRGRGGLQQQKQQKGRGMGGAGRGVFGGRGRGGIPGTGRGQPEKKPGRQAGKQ
UniProt P62310: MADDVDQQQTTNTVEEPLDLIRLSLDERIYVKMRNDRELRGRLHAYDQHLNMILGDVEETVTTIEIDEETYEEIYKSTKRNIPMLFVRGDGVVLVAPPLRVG
UniProt Q9UNF1: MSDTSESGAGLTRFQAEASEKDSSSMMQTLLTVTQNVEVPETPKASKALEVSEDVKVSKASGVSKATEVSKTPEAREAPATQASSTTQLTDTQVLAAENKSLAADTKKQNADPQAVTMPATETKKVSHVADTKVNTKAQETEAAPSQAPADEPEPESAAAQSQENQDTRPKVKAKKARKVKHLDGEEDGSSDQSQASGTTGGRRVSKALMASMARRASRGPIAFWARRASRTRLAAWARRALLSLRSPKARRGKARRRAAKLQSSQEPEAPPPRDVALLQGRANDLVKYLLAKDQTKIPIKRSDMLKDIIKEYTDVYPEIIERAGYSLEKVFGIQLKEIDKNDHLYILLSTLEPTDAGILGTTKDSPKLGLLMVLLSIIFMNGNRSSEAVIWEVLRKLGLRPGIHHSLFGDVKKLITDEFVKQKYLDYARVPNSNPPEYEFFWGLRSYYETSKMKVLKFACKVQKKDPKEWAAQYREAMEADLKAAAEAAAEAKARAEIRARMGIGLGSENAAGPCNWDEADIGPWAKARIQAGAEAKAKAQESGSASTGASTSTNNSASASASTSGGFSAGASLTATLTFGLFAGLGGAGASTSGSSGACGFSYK
UniProt P56192: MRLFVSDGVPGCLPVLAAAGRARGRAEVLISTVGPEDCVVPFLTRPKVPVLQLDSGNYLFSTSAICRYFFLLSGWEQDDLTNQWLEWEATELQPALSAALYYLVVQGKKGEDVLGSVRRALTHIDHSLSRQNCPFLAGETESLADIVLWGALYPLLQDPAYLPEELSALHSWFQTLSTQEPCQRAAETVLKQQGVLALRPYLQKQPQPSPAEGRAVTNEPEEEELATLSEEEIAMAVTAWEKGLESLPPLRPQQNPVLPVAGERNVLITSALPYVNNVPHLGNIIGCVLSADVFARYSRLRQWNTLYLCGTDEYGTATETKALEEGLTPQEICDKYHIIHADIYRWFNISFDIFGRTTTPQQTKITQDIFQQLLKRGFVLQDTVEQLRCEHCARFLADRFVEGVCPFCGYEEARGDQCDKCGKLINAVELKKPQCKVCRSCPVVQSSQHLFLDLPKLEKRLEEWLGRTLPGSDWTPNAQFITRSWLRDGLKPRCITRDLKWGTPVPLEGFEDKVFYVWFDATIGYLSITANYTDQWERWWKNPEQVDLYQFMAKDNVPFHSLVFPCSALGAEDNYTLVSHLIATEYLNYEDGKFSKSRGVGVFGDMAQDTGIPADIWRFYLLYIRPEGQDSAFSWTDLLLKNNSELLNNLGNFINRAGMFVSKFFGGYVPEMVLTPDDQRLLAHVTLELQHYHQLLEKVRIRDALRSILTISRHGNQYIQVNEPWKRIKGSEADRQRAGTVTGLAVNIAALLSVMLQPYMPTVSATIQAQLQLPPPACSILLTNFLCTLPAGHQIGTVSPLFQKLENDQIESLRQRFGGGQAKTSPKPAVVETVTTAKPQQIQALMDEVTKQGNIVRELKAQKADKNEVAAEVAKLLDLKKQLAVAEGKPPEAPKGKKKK
UniProt Q15013: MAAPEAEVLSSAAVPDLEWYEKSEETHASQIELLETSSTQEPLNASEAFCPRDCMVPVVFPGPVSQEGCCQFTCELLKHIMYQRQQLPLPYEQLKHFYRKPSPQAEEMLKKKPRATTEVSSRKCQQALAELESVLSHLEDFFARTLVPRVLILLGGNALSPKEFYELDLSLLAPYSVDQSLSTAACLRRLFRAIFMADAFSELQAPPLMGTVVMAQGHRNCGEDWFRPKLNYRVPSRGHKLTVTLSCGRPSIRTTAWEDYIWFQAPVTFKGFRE

Experiments:
Experiment in all cases: log2 fold change, soluble protein after heating vs DMSO (PISA); higher = thermal stabilisation; K562 cells, 10 uM, 30 min; active = over 0.2 and 3.5 SD of the protein, either way, in both replicates (recomputed)
IRAK-1-4 Inhibitor I = compound: C1COCCN1CCN2C3=CC=CC=C3N=C2NC(=O)C4=CC(=CC=C4)[N+](=O)[O-] [IRAK-1-4 Inhibitor I]
Summary of the method: (§1)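 K562 cells at 2×10^6 cells/mL were exposed to 10 μM compound for 30 min, then aliquots were heated for 3 min across 48°C-58°C, pooled, and extracted in PBS containing 0.5% NP-40 at 4°C. The supernatant after 21,000xg for 90 min was taken as soluble protein and measured by TMTpro 16plex LC-MS/MS with channel sums equalised. Thermal stability is reported relative to control samples, with values from duplicates. Fold changes are given on a log2 scale.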

ibrutinib = compound: C=CC(=O)N1CCC[C@@H](n2nc(-c3ccc(Oc4ccccc4)cc3)c3c(N)ncnc32)C1 [ibrutinib]
Summary of the method: as §1

[1] = compound: CC(=O)c1cnc2ccc(-c3cc(Cl)c(O)c(Cl)c3)nc2c1N[C@H]1CC[C@H](CN(C)C)CC1
Summary of the method: as §1

ralimetinib = compound: CC(C)(C)Cn1c(N)nc2ccc(-c3[nH]c(C(C)(C)C)nc3-c3ccc(F)cc3)nc21 [ralimetinib]
Summary of the method: as §1

[2] = compound: CC(C)(O)CC(=O)NCCn1ccc2ncnc(Nc3ccc(Oc4cccc(C(F)(F)F)c4)c(Cl)c3)c21
Summary of the method: as §1

[3] = compound: CC(C)C1=C2N=C(C=C(N2N=C1)NCC3=CC=CC=C3)NCCCCCCN
Summary of the method: as §1

[4] = compound: CC(C)C[C@@H](C=O)NC(=O)[C@H](CC(C)C)NC(=O)[C@H](CC(C)C)NC(=O)OCc1ccccc1
Summary of the method: as §1

pinometostat = compound: CC(C)N(C[C@H]1O[C@@H](n2cnc3c(N)ncnc32)[C@H](O)[C@@H]1O)[C@H]1C[C@@H](CCc2nc3cc(C(C)(C)C)ccc3[nH]2)C1 [pinometostat]
Summary of the method: as §1

[5] = compound: CC1=C(C(CC(=O)N1)C2=CC=C(C=C2)C(F)(F)F)C(=O)NC3=C(C=C4C(=C3)C=NN4)F
Summary of the method: as §1

[6] = compound: CC1=C(C2=C(C=C1)C(=O)C3=CC=CC=C3N2CCCN)C
Summary of the method: as §1

[7] = compound: CC1=C(C=C(C=C1)NC(=O)C2=CC(=CC=C2)C(C)(C)C#N)NC3=CC4=C(C=C3)N=CN(C4=O)C
Summary of the method: as §1

[8] = compound: CC1=C(C=C(C=C1)NC(=O)C2=CC(=CC=C2)N(C)C)NC(=O)C3=CC=C(C=C3)O
Summary of the method: as §1

[9] = compound: CC1=CC=C(C=C1)SC2=C3C=C(SC3=CN=C2)C(=O)N
Summary of the method: as §1

[10] = compound: CC1=NC(=CC=C1)C2=C(N=C(N2)C(C)(C)C)C3=CC4=NC=CN=C4C=C3
Summary of the method: as §1

Nexturastat A = compound: CCCCN(Cc1ccc(C(=O)NO)cc1)C(=O)Nc1ccccc1 [Nexturastat A]
Summary of the method: as §1

vemurafenib = compound: CCCS(=O)(=O)Nc1ccc(F)c(C(=O)c2c[nH]c3ncc(-c4ccc(Cl)cc4)cc23)c1F [vemurafenib]
Summary of the method: as §1

[11] = compound: CCCS(=O)(=O)Nc1ccc(F)c(C(=O)c2c[nH]c3ncc(Cl)cc23)c1F
Summary of the method: as §1

[12] = compound: CCCc1cc(C)[nH]c(=O)c1CNC(=O)c1cc(-c2ccnc(N3CCN(C)CC3)c2)cc2c1cnn2C(C)C
Summary of the method: as §1

givinostat = compound: CCN(CC)Cc1ccc2cc(COC(=O)Nc3ccc(C(=O)NO)cc3)ccc2c1 [givinostat]
Summary of the method: as §1

barasertib = compound: CCN(CCCOc1ccc2c(Nc3cc(CC(=O)Nc4cccc(F)c4)[nH]n3)ncnc2c1)CCOP(=O)(O)O [barasertib]
Summary of the method: as §1

Measured: log2 fold change

MAPRE2 (UniProt Q15555)
inactive: IRAK-1-4 Inhibitor I -0.096 | ibrutinib -0.019 | [1] 0.07 | ralimetinib 0.101 | [2] 0.069 | [3] -0.054 | [4] -0.083 | pinometostat -0.048 | [5] -0.072 | [6] -0.029 | [7] 0.495 | [8] -0.061 | [9] 0.027 | [10] 0.357 | Nexturastat A 0.29 | vemurafenib 0.195 | [11] 0.089 | [12] 0.094 | givinostat 0.095 | barasertib 0.005

LRSAM1 (UniProt Q6UWE0)
inactive: IRAK-1-4 Inhibitor I 0.023 | ibrutinib -0.032 | [1] 0.036 | ralimetinib 0.051 | [2] -0.067 | [3] -0.074 | [4] -0.01 | pinometostat -0.027 | [5] 0.026 | [6] 0.045 | [7] -0.023 | [8] 0.003 | [9] 0.061 | [10] 0.022 | Nexturastat A -0.121 | vemurafenib 0.05 | [11] 0.02 | [12] 0.021 | givinostat 0.001 | barasertib 0.132

LYSMD3 (UniProt Q7Z3D4)
inactive: IRAK-1-4 Inhibitor I -0.006 | ibrutinib 0.047 | [1] 0.047 | ralimetinib -0.179 | [2] 0.189 | [3] 0.129 | [4] 0.069 | pinometostat 0.006 | [5] 0.043 | [6] 0.055 | [7] 0.008 | [8] 0.034 | [9] 0.052 | [10] -0.003 | Nexturastat A -0.091 | vemurafenib -0.007 | [11] 0.19 | [12] -0.062 | givinostat -0.031 | barasertib -0.038

MANBA (UniProt O00462)
inactive: IRAK-1-4 Inhibitor I 0.031 | ibrutinib 0.019 | [1] -0.055 | ralimetinib 0.015 | [2] 0.013 | [3] -0.042 | [4] 0.108 | pinometostat -0.039 | [5] 0.008 | [6] -0.033 | [7] 0.005 | [8] 0.056 | [9] 0.015 | [10] -0.053 | Nexturastat A -0.043 | vemurafenib 0.041 | [11] -0.011 | [12] 0.007 | givinostat 0.05 | barasertib -0.009

MAP1A isoform 2 (UniProt P78559)
inactive: IRAK-1-4 Inhibitor I -0.066 | ibrutinib -0.038 | [1] 0.075 | ralimetinib 0.118 | [2] 0.019 | [3] -0.108 | [4] 0.048 | pinometostat 0.182 | [5] 0.004 | [6] -0.084 | [7] -0.035 | [8] -0.013 | [9] -0.02 | [10] -0.008 | Nexturastat A 0.142 | vemurafenib -0.059 | [11] -0.043 | [12] 0.064 | givinostat 0.057 | barasertib -0.034

Two entries drawn at random from the list so far:
MAP1A isoform 2 (UniProt P78559)
inactive: IRAK-1-4 Inhibitor I -0.066 | ibrutinib -0.038 | [1] 0.075 | ralimetinib 0.118 | [2] 0.019 | [3] -0.108 | [4] 0.048 | pinometostat 0.182 | [5] 0.004 | [6] -0.084 | [7] -0.035 | [8] -0.013 | [9] -0.02 | [10] -0.008 | Nexturastat A 0.142 | vemurafenib -0.059 | [11] -0.043 | [12] 0.064 | givinostat 0.057 | barasertib -0.034

LRSAM1 (UniProt Q6UWE0)
inactive: IRAK-1-4 Inhibitor I 0.023 | ibrutinib -0.032 | [1] 0.036 | ralimetinib 0.051 | [2] -0.067 | [3] -0.074 | [4] -0.01 | pinometostat -0.027 | [5] 0.026 | [6] 0.045 | [7] -0.023 | [8] 0.003 | [9] 0.061 | [10] 0.022 | Nexturastat A -0.121 | vemurafenib 0.05 | [11] 0.02 | [12] 0.021 | givinostat 0.001 | barasertib 0.132

(next part)

LSM8 (UniProt O95777)
inactive: IRAK-1-4 Inhibitor I 0.008 | ibrutinib -0.017 | [1] -0.028 | ralimetinib -0.061 | [2] 0.019 | [3] 0.06 | [4] -0.012 | pinometostat -0.07 | [5] -0.008 | [6] 0.035 | [7] -0.025 | [8] 0.021 | [9] -0.021 | [10] 0.011 | Nexturastat A -0.076 | vemurafenib -0.011 | [11] -0.017 | [12] -0.048 | givinostat -0.019 | barasertib -0.004

MALSU1 (UniProt Q96EH3)
inactive: IRAK-1-4 Inhibitor I 0.005 | ibrutinib -0.006 | [1] -0.038 | ralimetinib -0.001 | [2] 0.006 | [3] -0.05 | [4] 0.073 | pinometostat -0.078 | [5] 0.001 | [6] -0.084 | [7] -0.02 | [8] 0.076 | [9] 0.014 | [10] 0.053 | Nexturastat A 0.019 | vemurafenib -0.014 | [11] -0.018 | [12] -0.034 | givinostat -0.052 | barasertib -0.049

LZIC isoform 2 (UniProt Q8WZA0)
inactive: IRAK-1-4 Inhibitor I 0.016 | ibrutinib 0.016 | [1] 0.009 | ralimetinib -0.056 | [2] -0.014 | [3] 0.065 | [4] 0.067 | pinometostat -0.066 | [5] -0.008 | [6] -0.007 | [7] -0.057 | [8] 0.025 | [9] -0.008 | [10] 0.027 | Nexturastat A -0.055 | vemurafenib -0.013 | [11] -0.086 | [12] -0.027 | givinostat -0.023 | barasertib 0.003

LRRC8A (UniProt Q8IWT6)
inactive: IRAK-1-4 Inhibitor I -0.026 | ibrutinib 0.025 | [1] 0.019 | ralimetinib 0.056 | [2] 0.01 | [3] 0.007 | [4] 0.052 | pinometostat 0.228 | [5] 0.021 | [6] 0.137 | [7] 0.048 | [8] 0.008 | [9] -0.026 | [10] -0.053 | Nexturastat A 0.133 | vemurafenib -0.07 | [11] -0.007 | [12] 0.042 | givinostat 0 | barasertib -0.06

LSM4 (UniProt Q9Y4Z0)
inactive: IRAK-1-4 Inhibitor I 0 | ibrutinib 0.029 | [1] 0.048 | ralimetinib -0.037 | [2] -0.01 | [3] 0.107 | [4] 0.009 | pinometostat -0.056 | [5] 0.008 | [6] -0.01 | [7] 0.032 | [8] 0.011 | [9] 0.133 | [10] 0.005 | Nexturastat A -0.063 | vemurafenib 0.044 | [11] -0.03 | [12] -0.047 | givinostat -0.013 | barasertib -0.015

LSM3 (UniProt P62310)
inactive: IRAK-1-4 Inhibitor I 0.09 | ibrutinib -0.002 | [1] -0.039 | ralimetinib 0.023 | [2] 0.04 | [3] 0.064 | [4] -0.01 | pinometostat -0.051 | [5] 0.029 | [6] 0.065 | [7] -0.044 | [8] -0.027 | [9] 0.035 | [10] 0.045 | Nexturastat A 0.025 | vemurafenib 0.039 | [11] -0.045 | [12] -0.046 | givinostat -0.03 | barasertib 0.029

MAGED2 (UniProt Q9UNF1)
inactive: IRAK-1-4 Inhibitor I -0.084 | ibrutinib 0.065 | [1] 0.04 | ralimetinib 0.077 | [2] -0.129 | [3] 0.126 | [4] 0.213 | pinometostat 0.18 | [5] 0.208 | [6] 0.08 | [7] -0.186 | [8] 0.05 | [9] 0.016 | [10] -0.049 | Nexturastat A 0.305 | vemurafenib 0.025 | [11] -0.012 | [12] 0.243 | givinostat 0.405 | barasertib 0.049

MARS (UniProt P56192)
inactive: IRAK-1-4 Inhibitor I -0.016 | ibrutinib 0.005 | [1] 0.033 | ralimetinib 0.088 | [2] 0 | [3] -0.079 | [4] 0.044 | pinometostat 0.116 | [5] 0.008 | [6] -0.017 | [7] 0.027 | [8] 0 | [9] -0.011 | [10] -0.015 | Nexturastat A 0.117 | vemurafenib -0.003 | [11] 0.02 | [12] 0.042 | givinostat 0.038 | barasertib -0.014

LYAR (UniProt Q9NX58)
inactive: IRAK-1-4 Inhibitor I -0.151 | ibrutinib 0.023 | [1] 0.287 | ralimetinib 0.185 | [2] 0.224 | [3] 0.584 | [4] 0.078 | pinometostat 0.378 | [5] -0.031 | [6] -0.242 | [7] 0.055 | [8] -0.098 | [9] -0.157 | [10] -0.245 | Nexturastat A 0.267 | vemurafenib -0.193 | [11] -0.087 | [12] 0.162 | givinostat 0.082 | barasertib -0.124

MAD2L1BP isoform 3 (UniProt Q15013)
inactive: IRAK-1-4 Inhibitor I 0.02 | ibrutinib -0.013 | [1] -0.026 | ralimetinib -0.02 | [2] -0.123 | [3] 0.008 | [4] -0.011 | pinometostat -0.027 | [5] 0.009 | [6] -0.135 | [7] -0.038 | [8] 0.02 | [9] -0.007 | [10] 0.018 | Nexturastat A -0.073 | vemurafenib -0.025 | [11] 0.01 | [12] -0.03 | givinostat 0.019 | barasertib 0.01

MACF1 (UniProt Q9UPN3)
inactive: IRAK-1-4 Inhibitor I -0.1 | ibrutinib -0.044 | [1] -0.078 | ralimetinib 0.132 | [2] 0.004 | [3] -0.212 | [4] 0.099 | pinometostat 0.16 | [5] -0.024 | [6] -0.009 | [7] 0.048 | [8] -0.028 | [9] -0.02 | [10] -0.028 | Nexturastat A 0.185 | vemurafenib 0.023 | [11] 0.029 | [12] 0.087 | givinostat 0.043 | barasertib -0.007
